PubChem BioAssay AID504793 | Drosophila RNAi Screening Center – 2011

- Test: 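Genes required for cells to halt at G2/M after double-strand DNA breaks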 (primary screen)
- System: Drosophila S2R+ cells
- Reagents: long dsRNA against Drosophila genes, about 0.25 µg dsRNA per well
- Duration: 4 days of dsRNA, then 4 hours of drug before read-out
- Conditions: doxorubicin 0.5 µM for 4 hours to cause double-strand breaks, in cells also given a low, harmless dose of dsRNA against nbs to sensitise the assay
- Detection: 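Mitotic index as the number of phospho-histone H3-positive cells in each well following doxorubicin, given as raw counts without normalisation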
- Direction: mitotic cells: higher = more cells in mitosis, weaker G2 arrest
- Hit rule: 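Genes are called active only when high mitotic counts were reproduced with independent dsRNAs and mitosis was checked for delay without damage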
- Meaning of the calls: active = confirmed in follow-up tests; inactive = not confirmed
The deposit covers about 23,000 reagents; shown is an unselected part of those that have a named target and a result. In the full data, 62 (0.27%) were called active. 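Calls come from follow-up tests whose scores are not deposited, so confirmed genes may have low counts here; counts are not normalised per plate.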 Raw values vary from plate to plate and are shown uncorrected. Names joined by + are all predicted targets of the reagent.

| Target gene | dsRNA | mitotic cells, replicate 1 | mitotic cells, replicate 2 | outcome |
| --- | --- | --- | --- | --- |
| Ndg (Nidogen) | DRSC06223 | 8 | – | inactive |
| Ndg (Nidogen) | DRSC28402 | 8 | – | inactive |
| Ir54a + sub | DRSC06459 | 9 | – | inactive |
| G6P (Glucose-6-Phosphatase) | DRSC27121 | 6 | – | inactive |
| fj (four-jointed) | DRSC07619 | 8 | – | inactive |
| fj (four-jointed) | DRSC27535 | 4 | – | inactive |
| H (Hairless) | DRSC16692 | 11 | – | inactive |
| H (Hairless) | DRSC26618 | 4 | – | inactive |
| CG6674 | DRSC10692 | 5 | – | inactive |
| Grd (Glycine receptor) | DRSC11178 | 7 | – | inactive |
| Grd (Glycine receptor) | DRSC28513 | 4 | – | inactive |
| Ebp (Ejaculatory bulb protein) | DRSC04048 | 6 | – | inactive |
| Ebp (Ejaculatory bulb protein) | DRSC27342 | 7 | – | inactive |
| drongo | DRSC00814 | 5 | – | inactive |
| drongo | DRSC25074 | 8 | – | inactive |
| CG15812 | DRSC08479 | 2 | – | inactive |
| Rrp6 | DRSC16223 | 8 | – | inactive |
| NimC3 (Nimrod C3) | DRSC03556 | 5 | – | inactive |
| NimC3 (Nimrod C3) | DRSC22528 | 6 | – | inactive |
| NimC3 (Nimrod C3) | DRSC28582 | 5 | – | inactive |
| CG3430 | DRSC02713 | 6 | – | inactive |
| SMC1 (Structural maintenance of chromosomes 1) | DRSC16846 | 14 | – | inactive |
| CG32537 | DRSC20073 | 6 | – | inactive |
| CG32537 | DRSC23589 | 6 | – | inactive |
| deltaCOP (Coat Protein (coatomer) delta) | DRSC18760 | 8 | – | inactive |
| deltaCOP (Coat Protein (coatomer) delta) | DRSC25961 | 3 | – | inactive |
| CG15760 | DRSC19725 | 20 | – | inactive |
| CG15760 | DRSC25944 | 3 | – | inactive |
| CG5399 | DRSC15791 | 5 | – | inactive |
| CG5399 | DRSC25357 | 6 | – | inactive |
| CG11629 | DRSC03695 | 14 | – | inactive |
| CG42286 (retired record) | DRSC24974 | 8 | – | inactive |
| CG17239 | DRSC00492 | 5 | – | inactive |
| CG3907 | DRSC04432 | 12 | – | inactive |
| MP1 (Melanization Protease 1) | DRSC12124 | 13 | 15 | inactive |
| MP1 (Melanization Protease 1) | DRSC28577 | 3 | – | inactive |
| CG17154 | DRSC10253 | 3 | – | inactive |
| CG15544 | DRSC15082 | 16 | – | inactive |
| CG15544 | DRSC25686 | 12 | – | inactive |
| CG5265 | DRSC15756 | 5 | – | inactive |
| CG5323 | DRSC06929 | 6 | – | inactive |
| 140up (upstream of RpII140) | DRSC12634 | 5 | – | inactive |
| 140up (upstream of RpII140) | DRSC28711 | 3 | – | inactive |
| CycA (Cyclin A) | DRSC09132 | 8 | – | inactive |
| CycA (Cyclin A) | DRSC11123 | 7 | – | inactive |
| IFT57 (Intraflagellar transport 57) | DRSC00720 | 9 | – | inactive |
| Prp18 | DRSC16802 | 1 | – | inactive |
| Dys + snoRNA:Me18S-A1374 | DRSC16232 | 12 | – | inactive |
| TTLL6B (Tubulin tyrosine ligase-like 6B) | DRSC15932 | 9 | – | inactive |
| TTLL6B (Tubulin tyrosine ligase-like 6B) | DRSC26754 | 3 | – | inactive |
| CG10561 | DRSC02068 | 3 | – | inactive |
| CG11905 | DRSC09863 | 2 | – | inactive |
| CG11905 | DRSC24702 | 7 | – | inactive |
| BaraA1 + BaraA2 | DRSC05417 | 3 | – | inactive |
| CR14798 (pseudo) | DRSC17956 | 14 | – | inactive |
| IntS12 (Integrator 12) | DRSC15818 | 15 | – | inactive |
| CG32264 | DRSC08061 | 12 | – | inactive |
| CG32264 | DRSC08167 | 2 | – | inactive |
| CG32264 | DRSC08169 | 5 | – | inactive |
| CG32264 | DRSC08285 | 12 | 19 | inactive |
| CG32264 | DRSC25774 | 5 | – | inactive |
| Atg17 (Autophagy-related 17) | DRSC12221 | 4 | – | inactive |
| Reck (Reversion-inducing-cysteine-rich protein with kazal motifs) | DRSC10504 | 6 | – | inactive |
| Reck (Reversion-inducing-cysteine-rich protein with kazal motifs) | DRSC10505 | 3 | – | inactive |
| CG33178 | DRSC19950 | 9 | – | inactive |
| CG3348 | DRSC15480 | 14 | – | inactive |
| CG1304 | DRSC20494 | 5 | – | inactive |
| CG1304 | DRSC25704 | 6 | – | inactive |
| CG33181 | DRSC17971 | 10 | – | inactive |
| CG33181 | DRSC22376 | 5 | – | inactive |
| CG33181 | DRSC29457 | 9 | – | inactive |
| ECSIT | DRSC12348 | 4 | – | inactive |
| Cyp9f2 (Cytochrome P450 9f2) | DRSC16635 | 5 | – | inactive |
| CG8192 | DRSC24995 | 7 | – | inactive |
| kz (kurz) | DRSC18786 | – | – | inactive |
| Brf (Brf RNA polymerase III subunit) | DRSC14166 | 2 | – | inactive |
| Brf (Brf RNA polymerase III subunit) | DRSC14167 | 4 | – | inactive |
| Cib2 (Calcium and integrin binding family member 2) | DRSC04535 | 7 | – | inactive |
| Naa60 (N(alpha)-acetyltransferase 60) | DRSC10301 | 4 | – | inactive |
| Naa60 (N(alpha)-acetyltransferase 60) | DRSC26416 | 9 | – | inactive |
| GCS2alpha (Glucosidase 2 alpha subunit) | DRSC21036 | 12 | – | inactive |
| Gat (GABA transporter) | DRSC17144 | 12 | – | inactive |
| kl-5 (retired record) | DRSC20707 | 8 | – | inactive |
| kl-5 (retired record) | DRSC20736 | 9 | – | inactive |
| kl-5 (retired record) | DRSC20773 | 10 | – | inactive |
| kl-5 (retired record) | DRSC21161 | 8 | 10 | inactive |
| CG31910 | DRSC28186 | 7 | – | inactive |
| Pop1 (POP1 ribonuclease P/MRP subunit) | DRSC17739 | 7 | – | inactive |
| CG3740 | DRSC18508 | 11 | – | inactive |
| Cyp6g1 (Cytochrome P450 6g1) | DRSC07386 | 7 | – | inactive |
| CG10182 | DRSC14202 | 18 | – | inactive |
| CG10182 | DRSC25451 | 4 | – | inactive |
| CG15203 | DRSC19650 | 5 | – | inactive |
| CG18266 | DRSC02659 | 7 | – | inactive |
| Srp54k (Signal recognition particle 54k) | DRSC11289 | 5 | – | inactive |
| axed (axundead) | DRSC08833 | 10 | – | inactive |
| axed (axundead) | DRSC10982 | 3 | – | inactive |
| CG15705 | DRSC06576 | 5 | – | inactive |
| CG15705 | DRSC29360 | 5 | – | inactive |
| TwdlZ (TweedleZ) | DRSC19154 | 36 | – | inactive |
| mRpL17 (mitochondrial ribosomal protein L17) | DRSC08350 | 11 | – | inactive |
| Rad17 | DRSC16811 | 5 | – | inactive |
| CG44774 | DRSC18342 | 17 | – | inactive |
| CG44774 | DRSC27595 | 4 | – | inactive |
| CG6927 | DRSC18407 | 6 | – | inactive |
| CG33170 | DRSC22366 | 6 | – | inactive |
| CG31915 | DRSC03000 | 2 | – | inactive |
| CG12481 | DRSC19461 | 9 | – | inactive |
| CG10333 | DRSC02036 | 8 | – | inactive |
| CG10333 | DRSC29270 | 2 | – | inactive |

15 entries already listed, arranged by “mitotic cells, replicate 1”, lowest first.
| Target gene | dsRNA | mitotic cells, replicate 1 | mitotic cells, replicate 2 | outcome |
| --- | --- | --- | --- | --- |
| Prp18 | DRSC16802 | 1 | – | inactive |
| MP1 (Melanization Protease 1) | DRSC28577 | 3 | – | inactive |
| CG17154 | DRSC10253 | 3 | – | inactive |
| 140up (upstream of RpII140) | DRSC28711 | 3 | – | inactive |
| CG17239 | DRSC00492 | 5 | – | inactive |
| CG5265 | DRSC15756 | 5 | – | inactive |
| 140up (upstream of RpII140) | DRSC12634 | 5 | – | inactive |
| CG5323 | DRSC06929 | 6 | – | inactive |
| CycA (Cyclin A) | DRSC11123 | 7 | – | inactive |
| CycA (Cyclin A) | DRSC09132 | 8 | – | inactive |
| IFT57 (Intraflagellar transport 57) | DRSC00720 | 9 | – | inactive |
| CG3907 | DRSC04432 | 12 | – | inactive |
| CG15544 | DRSC25686 | 12 | – | inactive |
| MP1 (Melanization Protease 1) | DRSC12124 | 13 | 15 | inactive |
| CG15544 | DRSC15082 | 16 | – | inactive |
